{"sequences": {"note": "By UniProt entry, the sequences of proteins in these tests, tags left out.", "UniProt P18054, whole entry, looked up": "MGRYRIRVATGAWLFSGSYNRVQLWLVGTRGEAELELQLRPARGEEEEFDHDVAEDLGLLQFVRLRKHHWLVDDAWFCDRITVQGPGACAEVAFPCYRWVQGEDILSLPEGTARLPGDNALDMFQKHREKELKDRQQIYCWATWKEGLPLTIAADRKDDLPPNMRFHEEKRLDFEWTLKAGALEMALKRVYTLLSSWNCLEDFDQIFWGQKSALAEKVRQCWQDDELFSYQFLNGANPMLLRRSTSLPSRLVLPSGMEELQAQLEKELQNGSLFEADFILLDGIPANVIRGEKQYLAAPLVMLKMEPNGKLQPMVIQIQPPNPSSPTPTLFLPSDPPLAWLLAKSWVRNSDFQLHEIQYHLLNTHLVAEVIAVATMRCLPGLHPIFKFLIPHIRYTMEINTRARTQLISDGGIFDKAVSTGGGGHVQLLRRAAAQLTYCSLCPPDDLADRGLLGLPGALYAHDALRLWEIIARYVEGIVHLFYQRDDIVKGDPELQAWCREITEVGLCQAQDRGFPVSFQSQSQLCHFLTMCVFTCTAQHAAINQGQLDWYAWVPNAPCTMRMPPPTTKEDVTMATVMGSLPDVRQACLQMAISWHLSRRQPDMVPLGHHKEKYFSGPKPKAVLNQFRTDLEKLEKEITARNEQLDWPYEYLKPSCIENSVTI"}, "source": "PubChem BioAssay AID1671190", "about": "(National Center for Advancing Translational Sciences (NCATS), 2021)", "note": "“And” between values parts separate entries of the source, which are not always exact repeats. Equal values may be shown once. Among all 580,000 compounds or so, about 6,100 (1.1%) were called active. The shares of active, inactive and inconclusive entries below differ from those in the screen. Calls come from the whole dose curve; as a rule, active = well fitted inhibition curve with a large enough effect; inconclusive = small, poorly fitted or top-dose-only effect, or another doubt; inactive = no such curve, though single readings can be large or run the other way. Where the call is inconclusive, the potency comes from a doubtful curve fit. The source holds several records for some structures; these can differ, active in one and inactive in another. Potency is the fitted concentration of half-maximal effect."}
{"target": "Polyunsaturated fatty acid lipoxygenase ALOX12 (Homo sapiens) (UniProt P18054)", "experiment": "Primary qHTS assay for inhibitors of human arachidonate 12S-lipoxygenase (ALOX12): Round 2", "details": "purified 12hLO, xylenol orange hydroperoxide absorbance; series mostly up to 108 µM", "summary_of_the_method": "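Hydroperoxide product was detected by ferrous iron/xylenol orange as the 573 to 405 nm absorbance ratio. Arachidonic acid at 40 uM (final) was turned over for 30 min at room temperature by 150 nM human 12hLO, pH 7.0 Hepes buffer, after 15 min compound preincubation.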"}
{"smiles": "Cc1ccccc1CC(=O)Nc1cc(S(=O)(=O)N2CCOCC2)ccc1N1CCOCC1", "Potency": "inconclusive: 5.01 µM [inhibitor, full curve]"}
{"smiles": "O=C(Nc1ccccc1)c1ccc(=O)n(Cc2ccc(F)c(F)c2)c1", "Potency": "inactive"}
{"smiles": "Cc1nc2cc(F)ccc2cc1C(=O)N1CCN(Cc2ccccc2F)CC1", "Potency": "inconclusive: 31.6 µM [inhibitor, partial curve, poor fit]"}
{"smiles": "CCCCn1c(N)c(N(CCOC)C(=O)C2CCN(c3ncnc4sc(C)c(C)c34)CC2)c(=O)[nH]c1=O", "Potency": "inconclusive: 56.2 µM [inhibitor, partial curve, poor fit]"}
{"smiles": "CCCn1c(N)c(N(CCOC)C(=O)c2ccc(-c3ccccc3)cc2)c(=O)[nH]c1=O", "Potency": "inactive"}
{"smiles": "CSC[C@H]1CN(CCc2ccccc2)C(=O)[C@@H]1CC(=O)Nc1ccc(Br)cc1", "Potency": "inconclusive: 70.8 µM [inhibitor, partial curve, poor fit]"}
{"smiles": "Cc1nnc(-c2cc(-c3cnn(C)c3)ccn2)n1-c1ccccc1", "Potency": "inconclusive: 11.2 µM [inhibitor, full curve, poor fit]"}
{"smiles": "O=c1oc2ccccc2c(NC2CCCCC2)c1NS(=O)(=O)c1ccc(F)cc1", "Potency": "inactive"}
{"smiles": "CC(C)(C)C1CCc2onc(C(=O)O)c2C1", "note": "(stereo not drawn)", "Potency": "inconclusive: 141 µM [inhibitor, partial curve, poor fit]"}
{"smiles": "CCCc1cnc(N2CCN(S(C)(=O)=O)CC2)nc1", "Potency": "inconclusive: 5.62 µM [inhibitor, partial curve, poor fit]"}
{"smiles": "CC(C)c1ccc(NS(=O)(=O)c2ccc3c(c2)oc(=O)n3C)cc1", "Potency": "inactive"}
{"smiles": "Cc1cccn2cc(-c3ccccc3)nc12", "Potency": "inactive"}
{"smiles": "Nc1c2c(nc3c1CCCC3)CCCC2", "note": "(tested in a mixture with another compound)", "Potency": "inconclusive: 3.16 µM [inhibitor, full curve]"}
{"smiles": "COCCn1nnnc1C(c1ccccc1)N1CCN(C)CC1", "note": "(stereo not drawn)", "Potency": "inconclusive: 50.1 µM [inhibitor, single point]"}
{"smiles": "Cc1cccc(OCC(=O)Nc2ccc(S(=O)(=O)N3CCCC3)cc2)c1", "Potency": "inconclusive: 79.4 µM [inhibitor, partial curve, poor fit]"}
{"smiles": "COc1cccc(CCC(=O)N2CCC(C3CCN(S(C)(=O)=O)CC3)C2)c1", "note": "(stereo not drawn)", "Potency": "inactive"}
{"smiles": "CS(=O)(=O)N[C@@H]1C[C@H](Cn2cc(-c3cccnc3)nn2)[C@@H](O)[C@H]1O", "Potency": "inconclusive: 17.8 µM [inhibitor, full curve, poor fit]"}
{"smiles": "CCOCc1cc(CN2CCC(n3nccc3NC(=O)C3CC3)CC2)ccc1OC", "Potency": "inconclusive: 89.1 µM [inhibitor, partial curve, poor fit]"}
{"smiles": "Cn1c(=O)c2c(nc(OCc3ccccc3)n2C)n(C)c1=O", "Potency": "inconclusive: 112 µM [inhibitor, single point]"}
{"smiles": "O=C(Nc1ccc(-c2ccccc2)cc1)c1ccc2c(c1)S(=O)(=O)c1ccccc1C2=O", "Potency": "inconclusive: 141 µM [inhibitor, single point]"}
{"smiles": "CCN(CC)CCNCc1ccc(-c2ccccc2)o1", "Potency": "inconclusive: 3.16 µM [inhibitor, full curve, poor fit] and inconclusive: 20 µM [inhibitor, full curve]"}
{"smiles": "CCC1=C(c2ccc(C)cc2)S(=O)(=O)N=C1N1CCC(C(=O)Nc2ccccc2C(=O)OC)CC1", "Potency": "inconclusive: 56.2 µM [inhibitor, partial curve, poor fit]"}
{"smiles": "N#Cc1cccc(NC(=O)N2CCN(c3ncccc3Cl)CC2)c1", "Potency": "inconclusive: 35.5 µM [inhibitor, single point]"}
{"smiles": "CCN1CCN(c2nc3ccccc3nc2NS(=O)(=O)c2cc(Cl)ccc2Cl)CC1", "Potency": "active: 25.1 µM"}
{"smiles": "CCC(=O)c1ccc(OC(=O)c2ccc(C)c(Br)c2)cc1", "Potency": "inconclusive: 126 µM [inhibitor, partial curve, poor fit]"}
{"smiles": "O=C(CSc1ncnc2c1nnn2Cc1ccc(F)cc1)NC1CCCCC1", "Potency": "inactive"}
{"smiles": "C=CCN(C)CC[C@@H]1CC[C@H](O)[C@@H](C(=O)NC2CCCCC2)O1", "Potency": "inactive"}
{"smiles": "CCOC(=O)CNC(=O)C1CCCc2c1[nH]c1ccc(Cl)cc21", "note": "(stereo not drawn)", "Potency": "inconclusive: 112 µM [inhibitor, partial curve, poor fit]"}
{"smiles": "Cc1ccc(C(C(=O)NCc2ccco2)N(C(=O)CNC(=O)c2cccs2)c2c(C)cccc2C)cc1", "note": "(stereo not drawn)", "Potency": "inconclusive: 44.7 µM [inhibitor, single point]"}
{"smiles": "COc1ccc(C2C(C(C)=O)=C(C)N=c3s/c(=C\\c4ccco4)c(=O)n32)c(OC)c1", "note": "(stereo not drawn)", "Potency": "inconclusive: 44.7 µM [inhibitor, partial curve, poor fit]"}
{"smiles": "CCOC(=O)c1cc(CC)sc1NC(=O)c1cc(OC)c(OC)c(OC)c1", "Potency": "inconclusive: 126 µM [inhibitor, partial curve, poor fit]"}
{"smiles": "O=C(Nc1ccc(OC(F)F)cc1)c1nc(S(=O)(=O)Cc2ccc(F)cc2)ncc1Cl", "Potency": "inconclusive: 35.5 µM [inhibitor, partial curve, poor fit]"}
{"smiles": "CCC(C)N(C)Cc1cccc(C2(O)CCN(S(=O)(=O)c3ccc(F)cc3)CC2)c1", "note": "(stereo not drawn)", "Potency": "inactive"}
{"smiles": "CCN(CC)CCCNC(=O)c1cc2c(Cl)nc3ccccc3c2s1", "Potency": "inconclusive: 100 µM [inhibitor, single point]"}
{"smiles": "O=C1OC(c2ccccc2)=N/C1=C\\C=C\\c1ccccc1[N+](=O)[O-]", "Potency": "inconclusive: 56.2 µM [inhibitor, partial curve, poor fit]"}
{"smiles": "O=C(Nc1ccccc1)NC1CCN(c2nc3ncccc3o2)CC1", "Potency": "inactive"}
{"smiles": "c1nc(NCCN2CCOCC2)c2cc(-c3ccoc3)ccc2n1", "Potency": "inconclusive: 4.47 µM [inhibitor, full curve, poor fit]"}
{"smiles": "Cc1cccc(NC(=O)Cn2ccn3nc(-c4ccc(F)cc4)c(CO)c3c2=O)c1", "Potency": "inactive"}
{"smiles": "CC1(C)CC(=O)C=C(c2ccc(F)cc2OCc2ccccc2)C1", "Potency": "inconclusive: 50.1 µM [inhibitor, partial curve, poor fit]"}
{"smiles": "Cc1ccc(C(=O)Nc2cccc([N+](=O)[O-])c2)cc1S(=O)(=O)Nc1cccc(C(=O)O)c1", "Potency": "inactive"}
{"smiles": "N#CC1CCCc2c1[nH]c1ccccc21", "note": "(stereo not drawn)", "Potency": "inactive"}
{"smiles": "COc1ccc(C2c3c(-c4ccccc4)n[nH]c3C(=O)N2c2ccc(C(=O)O)cc2)c(OC)c1", "note": "(stereo not drawn)", "Potency": "inactive"}
{"smiles": "COc1cc(NC(=O)Cn2c(-c3ccccc3)cc(C(C)=O)c2C)cc(OC)c1", "Potency": "inconclusive: 126 µM [inhibitor, partial curve, poor fit]"}
{"smiles": "c1ccc(CCCCN2C(Nc3ccccc3)=NC[C@@H]2Cc2ccccc2)cc1", "Potency": "inconclusive: 25.1 µM [inhibitor, partial curve, poor fit]"}
{"smiles": "CC(C)Cc1nnc(NC(=O)c2cc3c(s2)CCC3)s1", "Potency": "inconclusive: 14.1 µM [inhibitor, partial curve, poor fit]"}
{"smiles": "N#Cc1ccc(/C=N/NC(=S)NCc2ccccc2)cc1", "Potency": "inconclusive: 31.6 µM [inhibitor, partial curve, poor fit]"}
{"smiles": "N#C/C(=C\\c1ccccc1OCC(=O)O)c1nc2ccccc2[nH]1", "Potency": "inconclusive: 6.31 µM [inhibitor, partial curve, poor fit]"}
{"smiles": "CCN1C(=O)[C@H]2[C@@H](c3ccc(C)cc3)N[C@]3(CCCN(Cc4ccc(Cl)cc4)C3=O)[C@H]2C1=O", "Potency": "inconclusive: 50.1 µM [inhibitor, partial curve, poor fit]"}
{"smiles": "CC1CN(C(=O)c2nn(C)cc2[N+](=O)[O-])CC(C)O1", "note": "(stereo not drawn)", "Potency": "inactive"}
{"smiles": "O=C(CSc1nc2nc[nH]c2c(=O)[nH]1)Nc1ccc(Br)cc1", "Potency": "inconclusive: 44.7 µM [inhibitor, partial curve, poor fit]"}
{"smiles": "CCOC(=O)c1c(NC(=S)NNS(=O)(=O)c2ccc(Br)cc2)sc2c1CCCCC2", "Potency": "active: 31.6 µM"}
{"smiles": "CCC(c1cccnc1)N(C)C(=O)c1cc(COc2ccccc2)[nH]n1", "note": "(stereo not drawn)", "Potency": "inactive"}
{"smiles": "N#Cc1ccc(-c2ccc(OCC(=O)NCCc3ccccc3)cc2)cc1", "Potency": "inactive"}
{"smiles": "COc1ccccc1/C=C/C=N/n1c(-c2ccc(C)cc2)n[nH]c1=S", "Potency": "inconclusive: 31.6 µM [inhibitor, partial curve]"}
{"smiles": "O=C(COc1ccc(Cl)cc1Cl)Nc1ccccc1F", "Potency": "inconclusive: 112 µM [inhibitor, single point]"}
{"smiles": "COC(=O)c1cccc(NC(=O)CCN2C(=O)C3CC=CCC3C2=O)c1", "note": "(stereo not drawn)", "Potency": "inconclusive: 44.7 µM [inhibitor, single point]"}
{"smiles": "CCN(CC)C(=O)COc1ccc(/C(C)=N/Nc2ncc(Cl)cc2Cl)cc1", "Potency": "inconclusive: 1.58 µM [inhibitor, partial curve, poor fit]"}
{"smiles": "COc1ccc(-n2nc(C3CCCN(C(C)=O)C3)[nH]c2=O)cc1", "note": "(stereo not drawn)", "Potency": "inactive"}
{"smiles": "OC[C@H]1C[C@@H](NCc2cccnc2)[C@H](O)[C@@H]1O", "Potency": "inconclusive: 31.6 µM [inhibitor, full curve]"}
{"smiles": "COCCCNC(=O)Cn1cnc(C(=O)Nc2ccc(C)c(C)c2)n1", "Potency": "inconclusive: 112 µM [inhibitor, partial curve, poor fit]"}
{"smiles": "O=c1[nH]c(-c2ccccc2)nc(-c2ccccc2)c1Cl", "Potency": "inconclusive: 100 µM [inhibitor, partial curve, poor fit]"}
{"smiles": "COc1ccc(C(C)=O)cc1CSCc1coc(-c2ccccc2)n1", "Potency": "inconclusive: 35.5 µM [inhibitor, partial curve, poor fit]"}
{"smiles": "OCCN(CCO)c1nc(N2CCCCC2)c2nc(N(CCO)CCO)nc(N3CCCCC3)c2n1", "Potency": "inconclusive: 21.7 µM [inhibitor, partial curve] and active: 44.7 µM"}
